Measurements reported in PubChem BioAssay AID504764 (Drosophila RNAi Screening Center, 2011).
The screen tested about 22,000 reagents; below is a random part of those that have a named target and a result. Over the whole deposit, 403 (1.9%) are marked active. 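Unnormalised raw counts per well; ratio z-scores behind the hit calls and whether each hit raises or lowers signal are not deposited.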 Entries without a mark were called inactive. The record does not give: the amount of reagent.

- Assay: 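Genome-wide screen for regulators of Notch-driven gene expression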 (primary screen)
- System: Drosophila Kc167 cells
- Knock-down reagent: long dsRNA against Drosophila genes
- Time to read-out: about 5 days (4 days dsRNA, then 24 h after transfection)
- Conditions: transfection of constitutively active membrane-tethered Notch lacking the extracellular domain, read 24 h later
- Detection: 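Light from a Notch-responsive E(spl)m3 luciferase reporter under active Notch, with control-promoter and no-Notch reporter wells to normalise; raw counts from paired wells a and b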
- Direction: induced reporter light, run 1, well a and induced reporter light, run 1, well b: higher = more light from the Notch target reporter with active Notch; control promoter light, run 1, well a and control promoter light, run 1, well b: higher = more light from the viral control promoter (cell number, transfection, viability); uninduced reporter light, run 1, well a: higher = more light from the Notch target reporter without active Notch
- Hit rule: 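Wells with low control signal or poorly matching duplicates excluded; duplicates averaged; per source plate, z beyond ±2 for induced/control log2 ratio or beyond ±1.8 for induced/uninduced marks a hit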
- Meaning of the calls: active = modifier hit (raised or lowered Notch signal); inactive = not a hit

p-cup [DRSC19513]
- induced reporter light, run 1, well a: 46340
- induced reporter light, run 1, well b: 40830
- control promoter light, run 1, well a: 42775
- control promoter light, run 1, well b: 35880
- uninduced reporter light, run 1, well a: 7170

Cdc7 [DRSC18428]
- induced reporter light, run 1, well a: 1.89e5
- induced reporter light, run 1, well b: 2.06e5
- control promoter light, run 1, well a: 3.38e5
- control promoter light, run 1, well b: 3.76e5
- uninduced reporter light, run 1, well a: 13600

Cdc7 [DRSC18429]
- induced reporter light, run 1, well a: 1.38e5
- induced reporter light, run 1, well b: 1.26e5
- control promoter light, run 1, well a: 2.18e5
- control promoter light, run 1, well b: 1.75e5
- uninduced reporter light, run 1, well a: 10405

CG16863 [DRSC01892]
- induced reporter light, run 1, well a: 1.07e5
- induced reporter light, run 1, well b: 1.30e5
- control promoter light, run 1, well a: 1.38e5
- control promoter light, run 1, well b: 1.35e5
- uninduced reporter light, run 1, well a: 9855

Alr [DRSC19469]
- induced reporter light, run 1, well a: 1.13e5
- induced reporter light, run 1, well b: 1.21e5
- control promoter light, run 1, well a: 1.32e5
- control promoter light, run 1, well b: 1.82e5
- uninduced reporter light, run 1, well a: 13125

Oatp30B [DRSC02727]
- induced reporter light, run 1, well a: 3.09e5
- induced reporter light, run 1, well b: 2.84e5
- control promoter light, run 1, well a: 2.06e5
- control promoter light, run 1, well b: 1.81e5
- uninduced reporter light, run 1, well a: 22305

TwdlK [DRSC16045]
- induced reporter light, run 1, well a: 62965
- induced reporter light, run 1, well b: 58325
- control promoter light, run 1, well a: 45420
- control promoter light, run 1, well b: 42690
- uninduced reporter light, run 1, well a: 9055

Continued, starting with the last 2 of the part before.
Oatp30B [DRSC02727]
- induced reporter light, run 1, well a: 3.09e5
- induced reporter light, run 1, well b: 2.84e5
- control promoter light, run 1, well a: 2.06e5
- control promoter light, run 1, well b: 1.81e5
- uninduced reporter light, run 1, well a: 22305

TwdlK [DRSC16045]
- induced reporter light, run 1, well a: 62965
- induced reporter light, run 1, well b: 58325
- control promoter light, run 1, well a: 45420
- control promoter light, run 1, well b: 42690
- uninduced reporter light, run 1, well a: 9055

Sema1b [DRSC07550]
- induced reporter light, run 1, well a: 1.01e5
- induced reporter light, run 1, well b: 1.16e5
- control promoter light, run 1, well a: 2.00e5
- control promoter light, run 1, well b: 1.98e5
- uninduced reporter light, run 1, well a: 9025

CG34195 [DRSC06909]
- induced reporter light, run 1, well a: 1.07e5
- induced reporter light, run 1, well b: 90995
- control promoter light, run 1, well a: 88435
- control promoter light, run 1, well b: 1.38e5
- uninduced reporter light, run 1, well a: 5920

CG4757 [DRSC14130]
- induced reporter light, run 1, well a: 85945
- induced reporter light, run 1, well b: 1.13e5
- control promoter light, run 1, well a: 1.35e5
- control promoter light, run 1, well b: 81740
- uninduced reporter light, run 1, well a: 33345

Best1 [DRSC16909]
- induced reporter light, run 1, well a: 76170
- induced reporter light, run 1, well b: 82015
- control promoter light, run 1, well a: 91800
- control promoter light, run 1, well b: 69840
- uninduced reporter light, run 1, well a: 5625

PolI [DRSC16267]
- induced reporter light, run 1, well a: 59400
- induced reporter light, run 1, well b: 74290
- control promoter light, run 1, well a: 63595
- control promoter light, run 1, well b: 45120
- uninduced reporter light, run 1, well a: 6230
